Measured values taken from patent US9095598B2, “Stilbenoid derivatives and their uses” (The Board of Trustees of the University of Arkansas, priority 2010, dated 2015).

Sequences of proteins named here, by UniProt entry; tags and fusion partners are left off.
UniProt P47746, whole entry: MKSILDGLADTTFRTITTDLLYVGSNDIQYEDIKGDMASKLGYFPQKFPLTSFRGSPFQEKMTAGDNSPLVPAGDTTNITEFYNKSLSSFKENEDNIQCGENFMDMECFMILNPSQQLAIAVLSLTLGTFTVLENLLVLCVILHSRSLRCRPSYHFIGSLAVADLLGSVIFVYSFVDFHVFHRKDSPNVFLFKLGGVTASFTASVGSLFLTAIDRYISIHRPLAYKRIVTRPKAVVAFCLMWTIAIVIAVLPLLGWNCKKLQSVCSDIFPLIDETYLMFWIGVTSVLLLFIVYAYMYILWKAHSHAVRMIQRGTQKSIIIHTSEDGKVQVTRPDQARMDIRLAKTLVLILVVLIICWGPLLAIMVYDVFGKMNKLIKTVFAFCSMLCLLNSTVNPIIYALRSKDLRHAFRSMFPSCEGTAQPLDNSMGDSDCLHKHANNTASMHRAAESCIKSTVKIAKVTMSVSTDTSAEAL

Target: T1, CB1 receptors (Mus musculus, UniProt P47746)
T1 construct: from tissue; host or cells: mouse brain membranes
Type: biochemical
Details: 1 μM, 30 min at 30° C.

Cc1c(C(=O)NN2CCCCC2)nn(-c2ccc(Cl)cc2Cl)c1-c1ccc(I)cc1 [AM251, reference compound]
effect on G-protein activity, in words: inhibited
